From patent US8652087B2, “Method for use of microdialysis” (priority 2009, dated 2014) come the findings set out here.

This data set can be described thus: Charcoal MTZ adsorption kinetics study (PMD and direct donor sampling). The class given is physicochemical. To be noted: 37° C. The protocol:
A charcoal suspension was prepared at least 24 hours before use by adding 0.6 g of activated charcoal (Sigma Chemical, St. Louis, Mo.) to 100 mL of 0.6% Dextran Solution (Birkmeier et al., 1995). A donor solution of MTZ in 0.005N NaOH was made with an initial concentration of C0=200 μg/mL and volume of 48 mL. A probe was immersed in the solution, and PMD was started before adding the charcoal using a dialysate that initially contained no MTZ. Samples were collected every 10 seconds, using a resting time of 8 seconds, a flow rate of 100 μL/min, and a sample volume of 5 μL. After collecting at least six samples, 2 mL of the charcoal suspension was quickly (in 1-2 seconds) mixed into 48 mL of stirred MTZ solution, giving a final volume of 50 mL. […] Samples were collected during 10 second intervals, and the start times for the sampling intervals were 0, 0.2, 0.4, 0.7, 1, 2, 5, 10 and 30 minutes. The flow rate was 100 μL/min, the rest time was 8 seconds, and the sample volume was 5 μL. The samples were immediately analyzed using HPLC. […] Direct sampling of the donor was also done at various times for comparison with the PMD data. The direct donor samples were immediately filtered to remove the activated charcoal and analyzed using HPLC.

Each structure is given as a SMILES string.

Regarding `CC(=O)/N=c1/sc(S(N)(=O)=O)nn1C` [MTZ, methazolamide], for the setting “1 minute”, the “free MTZ concentration after the first minute after addition of the activated charcoal” value stood at 2.8 µg/mL. Further, for the setting “start of first minute”, the “free MTZ concentration at addition of the activated charcoal” value turned out to be 5.4 µg/mL.
